From the supplement of paper PMC4604168 (melanoma cell lines)
The other results are listed elsewhere or left out. Single values are uncertain, as repeats are few or missing.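 Cells were imaged in 1,536-well plates, and nuclei stained with an antibody against cleaved PARP were counted against all DNA-stained nuclei to give the apoptosis fraction. Screening doses were chosen to leave most cells alive, and resting and induced cleaved-PARP levels differ strongly between cell lines.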

Tests used:
Test in all cases: cleaved PARP positive nuclei fraction relative to DMSO control; melanoma cells; higher = more apoptosis
Settings in all cases: library dose: low library concentration; 72 h
[1] = system: MZ2-MEL
[2] = system: MeWo
[3] = system: RPMI7951
[4] = system: RVH-421
[5] = system: SkMel28
[6] = system: SkMel2
[7] = system: SkMel30
[8] = system: SkMel5
[9] = system: UACC257
[10] = system: UACC62
[11] = system: WM115
[12] = system: WM1716
[13] = system: WM1745
[14] = system: WM3526
[15] = system: WM3619
[16] = system: WM451Lu

Compound | cleaved PARP positive nuclei fraction [1] | cleaved PARP positive nuclei fraction [2] | cleaved PARP positive nuclei fraction [3] | cleaved PARP positive nuclei fraction [4] | cleaved PARP positive nuclei fraction [5] | cleaved PARP positive nuclei fraction [6] | cleaved PARP positive nuclei fraction [7] | cleaved PARP positive nuclei fraction [8] | cleaved PARP positive nuclei fraction [9] | cleaved PARP positive nuclei fraction [10] | cleaved PARP positive nuclei fraction [11] | cleaved PARP positive nuclei fraction [12] | cleaved PARP positive nuclei fraction [13] | cleaved PARP positive nuclei fraction [14] | cleaved PARP positive nuclei fraction [15] | cleaved PARP positive nuclei fraction [16]
Nc1ccn([C@@H]2O[C@H](CO)[C@@H](O)C2(F)F)c(=O)n1 [gemcitabine] + CC(C)CCN1c2nc(Nc3cc(F)c(O)c(F)c3)ncc2N(C)C(=O)C1C [BID1870] (first compound 0.0004 µM, partner dose 0.2 µM) | 123% | 133% | 30.1% | 76% | 158% | 110% | 265% | 76.9% | 344% | 155% | 96.2% | 69.4% | 137% | 81.7% | 136% | 126%
CNC(=O)c1cc(Oc2ccc(NC(=O)Nc3ccc(Cl)c(C(F)(F)F)c3)cc2)ccn1 [sorafenib] + Oc1nc(-c2ccc(C(F)(F)F)cc2)nc2c1CSCC2 [XAV939] (first compound 0.4 µM, partner dose 2 µM) | 101% | 39.7% | 39.6% | 71.8% | 78.3% | 95.8% | 124% | 41.7% | 189% | 54.3% | 60.4% | 81.2% | 99.6% | 67% | 103% | 52.3%
Nc1nc(F)nc2c1ncn2[C@@H]1O[C@H](CO)[C@@H](O)[C@@H]1O [fludarabine] + CCN(CC)CCCCNc1ncc2cc(-c3cc(OC)cc(OC)c3)c(NC(=O)NC(C)(C)C)nc2n1 [PD173074] (first compound 0.2 µM, partner dose 0.1 µM) | 116% | 1020% | 68.1% | 60.3% | 125% | 636% | 394% | 404% | 88.1% | 60.9% | 105% | 135% | 82% | 246% | 115% | 431%
CNC(=O)c1cc(Oc2ccc(NC(=O)Nc3ccc(Cl)c(C(F)(F)F)c3)cc2)ccn1 [sorafenib] + CC1(C)NC(=O)N(c2ccc([N+](=O)[O-])c(C(F)(F)F)c2)C1=O [nilutamide] (first compound 0.4 µM, partner dose 1 µM) | 118% | 102% | 144% | 91.6% | 173% | 176% | 141% | 137% | 129% | 308% | 199% | 165% | 86.1% | 65.9% | 94.3% | 214%
CCCS(=O)(=O)Nc1ccc(F)c(C(=O)c2c[nH]c3ncc(Cl)cc23)c1F + OCCn1cc(-c2cnc3nnn(Cc4ccc5ncccc5c4)c3n2)cn1 [PF04217903] (first compound 0.08 µM, partner dose 1 µM) | 72% | 94.9% | 124% | 60.1% | 43.5% | 126% | 69.6% | 117% | 57.7% | 184% | 89.1% | 22% | 95.8% | 97.6% | 91.5% | 105%
Nc1ccn([C@@H]2O[C@H](CO)[C@@H](O)C2(F)F)c(=O)n1 [gemcitabine] + COc1ccc(-c2ccc3c(N4CCOCC4)nc(N4C[C@@H](C)O[C@@H](C)C4)nc3n2)cc1CO [KU0063794] (first compound 0.0004 µM, partner dose 0.02 µM) | 137% | 67% | 126% | 141% | 140% | 46.6% | 27.2% | 72.7% | 61% | 52% | 128% | 482% | 151% | 82.6% | 139% | 67.5%
Nc1nc(F)nc2c1ncn2[C@@H]1O[C@H](CO)[C@@H](O)[C@@H]1O [fludarabine] + COc1ccc2c(c1)CCC1C2CCC2(C)C(NCCCCCCN3C(=O)C=CC3=O)CCC12 [U73122] (first compound 0.2 µM, partner dose 0.4 µM) | 2020% | 625% | 91.8% | 170% | 118% | 1090% | 1190% | 247% | 65.4% | 85.8% | 291% | 126% | 162% | 3030% | 186% | 2690%
O=C(O)[C@@H]1[O][Sb](=[O])([O][Sb]2(=[O])[O][C@H]([C@H](O)CO)[C@H](O)[C@H](C(=O)O)[O]2)[O][C@H]([C@H](O)CO)[C@@H]1O (some centres not stated) [stibogluconate] + COc1ccc(-c2ccc3c(N4CCOCC4)nc(N4C[C@@H](C)O[C@@H](C)C4)nc3n2)cc1CO [KU0063794] (first compound 2 µM, partner dose 0.02 µM) | 122% | 63.6% | 72.8% | 144% | 52.5% | 176% | 43.9% | 70.1% | 101% | 121% | 88.8% | 111% | 177% | 157% | 115% | 120%
CNC(=O)c1cc(Oc2ccc(NC(=O)Nc3ccc(Cl)c(C(F)(F)F)c3)cc2)ccn1 [sorafenib] + COc1cc2c(Oc3ccc4[nH]c(C)cc4c3F)ncnc2cc1OCCCN1CCCC1 [cediranib] (first compound 0.4 µM, partner dose 0.4 µM) | 26.4% | 130% | 205% | 36.2% | 128% | 76.3% | 72.2% | 223% | 83% | 70.1% | 101% | 156% | 94.8% | 15.9% | 90.2% | 29.5%
Nc1ccn([C@@H]2O[C@H](CO)[C@@H](O)C2(F)F)c(=O)n1 [gemcitabine] + COc1ccc2c(c1)CCC1C2CCC2(C)C(NCCCCCCN3C(=O)C=CC3=O)CCC12 [U73122] (first compound 0.0004 µM, partner dose 0.4 µM) | 150% | 110% | 41.5% | 102% | 46.4% | 81.7% | 82.5% | 66.3% | 59.8% | 177% | 77.5% | 102% | 124% | 182% | 143% | 36.8%
CS(=O)(=O)CCNCc1ccc(-c2ccc3ncnc(Nc4ccc(OCc5cccc(F)c5)c(Cl)c4)c3c2)o1 [lapatinib] + CC1(C)NC(=O)N(c2ccc([N+](=O)[O-])c(C(F)(F)F)c2)C1=O [nilutamide] (first compound 0.8 µM, partner dose 1 µM) | 27.2% | 87.3% | 106% | 38.5% | 39.4% | 263% | 52.2% | 35.4% | 29% | 54.5% | 32.6% | 80.2% | 95.6% | 125% | 182% | 26%
CNC(=O)c1cc(Oc2ccc(NC(=O)Nc3ccc(Cl)c(C(F)(F)F)c3)cc2)ccn1 [sorafenib] + Cc1cc(N2CCOCC2)cc2[nH]c(-c3c(NC[C@@H](O)c4cccc(Cl)c4)cc[nH]c3=O)nc12 [BMS536924] (first compound 0.4 µM, partner dose 0.2 µM) | 202% | 70.2% | 99.2% | 79.2% | 66.7% | 168% | 245% | 156% | 37.5% | 64.6% | 31.9% | 58.5% | 116% | 29.2% | 110% | 86.5%
Cn1c(=O)n(-c2ccc(C(C)(C)C#N)cc2)c2c3cc(-c4cnc5ccccc5c4)ccc3ncc21 + Cc1ccc(NC(=O)c2cccc(N(C)C)c2)cc1NC(=O)c1ccc(O)cc1 [ZM336372] (first compound 0.004 µM, partner dose 2 µM) | 45.9% | 82.1% | 149% | 100% | 62.3% | 68.2% | 67.3% | 144% | 193% | 293% | 109% | 81.2% | 97.1% | 65.6% | 100% | 95.3%
O=C(O)[C@@H]1[O][Sb](=[O])([O][Sb]2(=[O])[O][C@H]([C@H](O)CO)[C@H](O)[C@H](C(=O)O)[O]2)[O][C@H]([C@H](O)CO)[C@@H]1O (some centres not stated) [stibogluconate] + O=C1NC(=O)/C(=C/c2ccc(-c3ccc(F)cc3O)o2)S1 [AS252424] (first compound 2 µM, partner dose 1 µM) | 135% | 106% | 207% | 120% | 116% | 80.9% | 37% | 69.6% | 345% | 306% | 146% | 107% | 202% | 232% | 97.7% | 48.1%
Cn1c(=O)n(-c2ccc(C(C)(C)C#N)cc2)c2c3cc(-c4cnc5ccccc5c4)ccc3ncc21 + COc1cc(N2CCC(N3CCN(C)CC3)CC2)ccc1Nc1ncc(Cl)c(Nc2ccccc2S(=O)(=O)C(C)C)n1 [NVP-TAE684] (first compound 0.004 µM, partner dose 0.08 µM) | 103% | 210% | 186% | 199% | 162% | 106% | 70.7% | 74.3% | 38.4% | 283% | 171% | 125% | 99.2% | 149% | 90.3% | 40%
C=C(c1ccc(C(=O)O)cc1)c1cc2c(cc1C)C(C)(C)CCC2(C)C [Bexarotene] + CC1(C)NC(=O)N(c2ccc([N+](=O)[O-])c(C(F)(F)F)c2)C1=O [nilutamide] (first compound 2 µM, partner dose 1 µM) | 60.5% | 127% | 60% | 264% | 48.6% | 69.2% | 31.7% | 74.4% | 38.3% | 33.1% | 143% | 53.5% | 95.8% | 126% | 97.9% | 122%
Nc1ncn([C@H]2C[C@H](O)[C@@H](CO)O2)c(=O)n1 [decitabine] + CC(C)CCN1c2nc(Nc3cc(F)c(O)c(F)c3)ncc2N(C)C(=O)C1C [BID1870] (first compound 0.1 µM, partner dose 0.2 µM) | 47.5% | 120% | 774% | 245% | 100% | 140% | 38.4% | 69.2% | 49.8% | 78.9% | 159% | 266% | 81.9% | 77.8% | 151% | 130%

Looked up one by one from the entries so far (2):
Compound | cleaved PARP positive nuclei fraction [1] | cleaved PARP positive nuclei fraction [2] | cleaved PARP positive nuclei fraction [3] | cleaved PARP positive nuclei fraction [4] | cleaved PARP positive nuclei fraction [5] | cleaved PARP positive nuclei fraction [6] | cleaved PARP positive nuclei fraction [7] | cleaved PARP positive nuclei fraction [8] | cleaved PARP positive nuclei fraction [9] | cleaved PARP positive nuclei fraction [10] | cleaved PARP positive nuclei fraction [11] | cleaved PARP positive nuclei fraction [12] | cleaved PARP positive nuclei fraction [13] | cleaved PARP positive nuclei fraction [14] | cleaved PARP positive nuclei fraction [15] | cleaved PARP positive nuclei fraction [16]
Nc1ccn([C@@H]2O[C@H](CO)[C@@H](O)C2(F)F)c(=O)n1 [gemcitabine] + COc1ccc2c(c1)CCC1C2CCC2(C)C(NCCCCCCN3C(=O)C=CC3=O)CCC12 [U73122] (first compound 0.0004 µM, partner dose 0.4 µM) | 150% | 110% | 41.5% | 102% | 46.4% | 81.7% | 82.5% | 66.3% | 59.8% | 177% | 77.5% | 102% | 124% | 182% | 143% | 36.8%
CCCS(=O)(=O)Nc1ccc(F)c(C(=O)c2c[nH]c3ncc(Cl)cc23)c1F + OCCn1cc(-c2cnc3nnn(Cc4ccc5ncccc5c4)c3n2)cn1 [PF04217903] (first compound 0.08 µM, partner dose 1 µM) | 72% | 94.9% | 124% | 60.1% | 43.5% | 126% | 69.6% | 117% | 57.7% | 184% | 89.1% | 22% | 95.8% | 97.6% | 91.5% | 105%
